Data as given in PubChem BioAssay AID284 (DTP/NCI, 2004).
The list does not hold the whole screen: it is rich in T/C values a quarter to a half above the control, in often repeated tests (any T/C) and in doses without a T/C. Further doses and runs are listed elsewhere. T/C gives the treated animals as a percentage of the vehicle group. Some entries give survivors of the animals treated and no T/C: the source holds a T/C of zero for them, seemingly a mark for toxic or unscored doses. Some doses without a T/C left all or most animals alive at the check, yet need not have been tolerated: survival well below the control is almost never listed, so the zero probably covers shortened survival too. Counts of survivors are from the toxicity check (mostly the fifth day) where no day follows; animals may have died later. Schedule codes are those of the source, taken here to give the interval after Q, in days (D) or hours (H), and the number of doses after X. Some entries were tested several times; the results are listed from low to high. Some schedules carry Z or #; the key to these is not given. Some molecules as drawn cover several salts, stereoisomers or complexes of the source; a dose is that of the sample tested. For survival time, this PubChem deposit counts one and a half times the control or more as active, and values a quarter to a half above the control carry no call in these data; other NCI protocols may use other cut-offs. Some T/C values carry the count of animals alive at the toxicity check (mostly the fifth day); without a count, all were alive then.

Tested on: BDF1 mice, L1210/MTX-resistant leukemia ip, survival T/C
Test: NCI In Vivo Anticancer Drug Screen. Data for tumor model L1210 Leukemia resistant to Methotrexate; NSC 740 (intraperitoneal) in B6D2F1 (BDF1) mice
Conditions: T/C endpoint: mean survival time, higher T/C = longer survival
Protocol: The antitumor activity of compounds was measured in mice bearing transplantable tumors. Survival or tumor size were measured and the results are expressed as the measurement made in the treated group (T) divided by the measurement made in the vehicle treated control group (C). The tumor model used in this assay is L1210 Leukemia resistant to Methotrexate; NSC 740 (intraperitoneal) in B6D2F1 (BDF1) mice

[1] = dose: 2.0 mg/kg/injection, schedule: Q01DX010 (ip), vehicle: other
[2] = dose: 12.5 mg/kg/injection, schedule: Q01DX Z (ip), vehicle: methylcellulose (MC)
[3] = dose: 25.0 mg/kg/injection, schedule: Q01DX Z (ip), vehicle: methylcellulose (MC)
[4] = dose: 50.0 mg/kg/injection, schedule: Q01DX Z (ip), vehicle: methylcellulose (MC)
[5] = dose: 100.0 mg/kg/injection, schedule: Q01DX Z (ip), vehicle: methylcellulose (MC)
[6] = dose: 200.0 mg/kg/injection, schedule: Q01DX Z (ip), vehicle: methylcellulose (MC)
[7] = dose: 1.0 mg/kg/injection, schedule: Q01DX Z (ip), vehicle: other
[8] = dose: 2.0 mg/kg/injection, schedule: Q01DX Z (ip), vehicle: other
[9] = dose: 125.0 mg/kg/injection, schedule: Q01DX Z (ip), vehicle: carboxymethylcellulose (CMC)
[10] = dose: 250.0 mg/kg/injection, schedule: Q01DX Z (ip), vehicle: carboxymethylcellulose (CMC)
[11] = dose: 500.0 mg/kg/injection, schedule: Q01DX Z (ip), vehicle: carboxymethylcellulose (CMC)

## O=C(Nc1ccc(C2=NCCCN2)cc1)c1ccc(NC(=O)c2ccc(C3=NCCCN3)cc2)cc1
[1]
  T/C: 130 % of control
dose: 16.0 mg/kg/injection, schedule: Q01DX010 (ip), vehicle: other
  survivor count: 5 of 6 and 6 of 6
dose: 32.0 mg/kg/injection, schedule: Q01DX010 (ip), vehicle: other
  survivor count: 0 of 6

## CN(C)c1ccc(/C=C\c2ccnc3ccccc23)cc1
dose: 12.0 mg/kg/injection, schedule: Q01DX010 (ip), vehicle: saline
  survivor count: 6 of 6

## CC(=O)O[C@]1(C(C)=O)CC[C@H]2[C@@H]3C[C@H](C)C4=CC(=O)C=C[C@]4(C)[C@@]3(F)[C@@H](O)C[C@@]21C
dose: 50.0 mg/kg/injection, schedule: Q01DX Z (sc), vehicle: steroid suspending solution
  T/C: 139 % of control
dose: 75.0 mg/kg/injection, schedule: Q01DX Z (sc), vehicle: steroid suspending solution
  T/C: 145 % of control
dose: 100.0 mg/kg/injection, schedule: Q01DX Z (sc), vehicle: steroid suspending solution
  T/C: 133 % of control
dose: 187.0 mg/kg/injection, schedule: Q01DX Z (sc), vehicle: steroid suspending solution
  survivor count: 6 of 6
dose: 250.0 mg/kg/injection, schedule: Q01DX Z (sc), vehicle: steroid suspending solution
  survivor count: 6 of 6
dose: 375.0 mg/kg/injection, schedule: Q01DX Z (sc), vehicle: steroid suspending solution
  survivor count: 6 of 6
dose: 500.0 mg/kg/injection, schedule: Q01DX Z (sc), vehicle: steroid suspending solution
  survivor count: 6 of 6

## Nc1nc(N)c2nc(CNc3ccc(C(=O)NC(CCC(=O)O)C(=O)O)cc3)cnc2n1 (centres undefined)
dose: 0.05 mg/kg/injection, schedule: Q01DX010 (ip), vehicle: other
  survivor count: 6 of 6
dose: 0.4 mg/kg/injection, schedule: Q01DX010 (ip), vehicle: other
  survivor count: 6 of 6

## CN(N=O)C(=O)NC(C=O)C(O)C(O)C(O)CO (centres undefined)
dose: 25.0 mg/kg/injection, schedule: Q01DX010 (ip), vehicle: saline
  T/C: 127 % of control
dose: 50.0 mg/kg/injection, schedule: Q01DX010 (ip), vehicle: saline
  T/C: 140 % of control
dose: 200.0 mg/kg/injection, schedule: Q01DX Z (ip), vehicle: saline
  survivor count: 6 of 6

## O=c1[nH]cc(F)c(=O)[nH]1
dose: 100.0 mg/kg/injection, schedule: Q01DX Z (ip), vehicle: saline
  survivor count: 5 of 6

## Nc1nc2c(c(=O)[nH]1)N=C(CNc1ccc(C(=O)NC(CCC(=O)O)C(=O)O)cc1)CN2 (centres undefined)
dose: 1.0 mg/kg/injection, schedule: Q01DX009 (ip), vehicle: sodium bicarbonate
  survivor count: 6 of 6
dose: 2.0 mg/kg/injection, schedule: Q01DX009 (ip), vehicle: sodium bicarbonate
  survivor count: 6 of 6
dose: 4.0 mg/kg/injection, schedule: Q01DX009 (ip), vehicle: sodium bicarbonate
  survivor count: 6 of 6
dose: 8.0 mg/kg/injection, schedule: Q01DX009 (ip), vehicle: sodium bicarbonate
  survivor count: 6 of 6
dose: 16.0 mg/kg/injection, schedule: Q01DX009 (ip), vehicle: sodium bicarbonate
  survivor count: 6 of 6

## O=C(Nc1ccc(C2=NCCN2)cc1)c1ccc(C(=O)Nc2ccc(C3=NCCN3)cc2)c(Cl)c1
[1]
  T/C: 140 % of control
dose: 4.0 mg/kg/injection, schedule: Q01DX010 (ip), vehicle: other
  T/C: 136 and 143 % of control
dose: 8.0 mg/kg/injection, schedule: Q01DX010 (ip), vehicle: other
  T/C: 134 % of control
dose: 10.0 mg/kg/injection, schedule: Q01DX Z (ip), vehicle: saline
  T/C: 141 % of control [5 of 6 alive]
dose: 13.0 mg/kg/injection, schedule: Q02DX010 (ip), vehicle: carboxymethylcellulose (CMC)
  T/C: 138 % of control
dose: 20.0 mg/kg/injection, schedule: Q01DX Z (ip), vehicle: saline
  T/C: 97, 131, 148, 153 % of control
dose: 20.0 mg/kg/injection, schedule: Q02DX010 (ip), vehicle: carboxymethylcellulose (CMC)
  T/C: 143 % of control
dose: 40.0 mg/kg/injection, schedule: Q01DX Z (ip), vehicle: saline
  T/C: 94, 108, 123, 161 % of control
dose: 160.0 mg/kg/injection, schedule: Q01DX Z (ip), vehicle: other
  survivor count: 6 of 6

## C[C@H]1C(=O)O[C@@H]2CCN3CC=C(COC(=O)[C@](C)(O)[C@@]1(C)O)[C@H]23
[2]
  survivor count: 6 of 6
[3]
  survivor count: 4 of 6
[4]
  survivor count: 3 of 6 and 6 of 6
[5]
  survivor count: 6 of 6
[6]
  survivor count: 5 of 6

## CC/C(=C(/CC)c1ccc(O)cc1)c1ccc(O)cc1
dose: 25.0 mg/kg/injection, schedule: Q01DX010 (sc), vehicle: steroid suspending solution
  survivor count: 6 of 6
dose: 50.0 mg/kg/injection, schedule: Q01DX010 (sc), vehicle: steroid suspending solution
  survivor count: 6 of 6

## O=C1C(NC(=O)C2CCCCC2)=C(N2CC2)C(=O)C(NC(=O)C2CCCCC2)=C1N1CC1
[2]
  survivor count: 6 of 6
[3]
  survivor count: 6 of 6
[4]
  survivor count: 0 of 6 and 4 of 6
[5]
  survivor count: 0 of 6
[6]
  survivor count: 0 of 6

## O[C@H](CN1CC1)[C@@H](O)CN1CC1
dose: 0.04 mg/kg/injection, schedule: Q01DX Z (ip), vehicle: saline
  T/C: 138 % of control
dose: 0.08 mg/kg/injection, schedule: Q01DX Z (ip), vehicle: saline
  T/C: 129 % of control
dose: 0.12 mg/kg/injection, schedule: Q01DX Z (ip), vehicle: saline
  T/C: 142 % of control
dose: 0.25 mg/kg/injection, schedule: Q01DX Z (ip), vehicle: saline
  T/C: 134 % of control
dose: 0.5 mg/kg/injection, schedule: Q01DX Z (ip), vehicle: saline
  T/C: 128 % of control [5 of 6 alive]

## CN(Cc1cnc2nc(N)nc(N)c2n1)c1ccc(C(=O)N[C@@H](CCC(=O)O)C(=O)O)cc1
dose: 0.5 mg/kg/injection, schedule: Q01DX Z (ip), vehicle: other
  T/C: 93, 99, 102, 106, 109, 120 % of control
[7]
  T/C: 91, 98, 104, 108 [5 of 6 alive], 109, 111, 113, 121 % of control [5 of 6 alive]
  survivor count: 6 of 6
[8]
  T/C: 94 and 100 % of control
  survivor count: 6 of 6
dose: 3.0 mg/kg/injection, schedule: Q01DX010 (ip), vehicle: other
  survivor count: 6 of 6
dose: 3.0 mg/kg/injection, schedule: Q01DX Z (ip), vehicle: alkali diluted with saline
  survivor count: 7 of 7

## C[n+]1c2ccccc2nc2c(N)cc(N)cc21
dose: 27.0 mg/kg/injection, schedule: Q01DX010 (ip), vehicle: saline
  survivor count: 3 of 6

## CN(C)c1nc(N(C)C)nc(N(C)C)n1
[8]
  survivor count: 6 of 6
dose: 350.0 mg/kg/injection, schedule: Q01DX Z (ip), vehicle: other
  survivor count: 4 of 6
dose: 500.0 mg/kg/injection, schedule: Q01DX Z (ip), vehicle: other
  survivor count: 2 of 6

## Nc1nc(SCc2ccccc2)c2[nH]cnc2n1
dose: 32.0 mg/kg/injection, schedule: Q01DX010 (ip), vehicle: saline
  survivor count: 6 of 6
[9]
  survivor count: 6 of 6
[10]
  survivor count: 0 of 6
[11]
  survivor count: 0 of 6

## O=c1[nH]c(=O)n(C2CC(O)C(CO)O2)cc1I (centres undefined)
dose: 62.5 mg/kg/injection, schedule: Q01DX Z (ip), vehicle: carboxymethylcellulose (CMC)
  survivor count: 6 of 6
[9]
  survivor count: 5 of 6
[10]
  survivor count: 6 of 6
[11]
  survivor count: 5 of 6

## Cn1c(O)c(N=NC(N)=S)c2ccccc21
dose: 25.0 mg/kg/injection, schedule: Q01DX Z (ip), vehicle: carboxymethylcellulose (CMC)
  survivor count: 6 of 6
dose: 200.0 mg/kg/injection, schedule: Q01DX Z (ip), vehicle: carboxymethylcellulose (CMC)
  survivor count: 6 of 6
